# Results published in patent US20040033276A1, “Coating composition for cereals having a preventive or treating effect on diabetes and cereals coated thereby” (priority 2002, published 2004).
# At least one compound was matched to its structure with a doubt left.
# Tested on: α-glucosidase
# Assay: Inhibition of α-glucosidase by extracts of herb medicine
# Format: biochemical
# Conditions: 405 nm; 0.1 ml extract, 37° C., 30 minutes
# Method: Inhibitory activities of various herb extracts on the activity of α-glucosidase, which catalyzes the digestion of a polysaccharide to monosaccharides, were examined as follows. Extracts of various herb medicines listed in Table 4 below were prepared in accordance with the method of Reference Example 2. Added to 0.27 ml of 2 mM substrate (p-nitrophenyl-α-D-glucopyranoside, Sigma, U.S.A.) were 0.03 ml of α-glucosidase(Sigma, U.S.A.), 0.2 ml of 20 mM phosphate buffer (pH 7.0) and 0.1 ml of respective extracts obtained above. The resulting mixture was incubated in a 37° C. thermostat(Vision Science, Korea) for 30 minutes, and 0.5 ml of 1 M glycine-NaOH (pH 9.0) was added thereto to stop the reaction. […] Negative control was treated with distilled water instead of the herb extract, and positive control, with acarbose(Glucobay™, Bayer) and DNJ (Deoxynojirimycin, Dep. Seruculture & Entomology, NIAST), which are representative α-glucosidase inhibitors. Activities of the respective extracts for inhibiting α-glucosidase were calculated by the following equation and the result is shown in Table 4. Inhibition (%)=(1−Absorbance of a sample/Absorbance of the negative control)×100
smiles,measurement,value
"C[C@H]1O[C@H](O[C@H]2[C@H](O)[C@@H](O)[C@@H](O[C@H]3[C@H](O)[C@@H](O)C(O)O[C@@H]3CO)O[C@@H]2CO)[C@H](O)[C@@H](O)[C@@H]1N[C@H]1C=C(CO)[C@@H](O)[C@H](O)[C@H]1O (stereo partly shown) [Acabose, acarbose]",Absorbance,1.5033 ± 0.005132
